Source: patent publication US20160157484A1, “NATURAL ANTIMICROBIAL COMPOSITIONS” (Lincoln Manufacturing Inc., priority 2011, published 2016)

Assay: Ability to thicken a DEA/sulfate shampoo system without salt
Details: 5% added to DEA/sulfate shampoo system

OCCCO [1,3 Propanediol]
Thicken DEA/Sulfate Shampoo Systems without salt: No

Glycereth 2-Cocoate
Thicken DEA/Sulfate Shampoo Systems without salt: No
